The supplement of paper PMC12823440, “Inhibitors supercharge kinase turnover through native proteolytic circuits” (Nature, 2025)
Counter-ions that a name gives are not always drawn. This is one part of the list. The calls rarely recur for the same compound in another form.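 Kinases were expressed as nanoluciferase fusions in K562 cells and luminescence was read every 4 h between 2 and 18 h as percent of control, DMSO set to 100% and a positive control to 0%. A time point counts as decreased when the signal drops significantly (2 sigma). The hit call is the authors' own, does not follow from the count of time points alone, and its rule is not shown.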

Sequences of proteins named here, by UniProt entry; tags and fusion partners are left off.
UniProt P11362, whole entry, looked up: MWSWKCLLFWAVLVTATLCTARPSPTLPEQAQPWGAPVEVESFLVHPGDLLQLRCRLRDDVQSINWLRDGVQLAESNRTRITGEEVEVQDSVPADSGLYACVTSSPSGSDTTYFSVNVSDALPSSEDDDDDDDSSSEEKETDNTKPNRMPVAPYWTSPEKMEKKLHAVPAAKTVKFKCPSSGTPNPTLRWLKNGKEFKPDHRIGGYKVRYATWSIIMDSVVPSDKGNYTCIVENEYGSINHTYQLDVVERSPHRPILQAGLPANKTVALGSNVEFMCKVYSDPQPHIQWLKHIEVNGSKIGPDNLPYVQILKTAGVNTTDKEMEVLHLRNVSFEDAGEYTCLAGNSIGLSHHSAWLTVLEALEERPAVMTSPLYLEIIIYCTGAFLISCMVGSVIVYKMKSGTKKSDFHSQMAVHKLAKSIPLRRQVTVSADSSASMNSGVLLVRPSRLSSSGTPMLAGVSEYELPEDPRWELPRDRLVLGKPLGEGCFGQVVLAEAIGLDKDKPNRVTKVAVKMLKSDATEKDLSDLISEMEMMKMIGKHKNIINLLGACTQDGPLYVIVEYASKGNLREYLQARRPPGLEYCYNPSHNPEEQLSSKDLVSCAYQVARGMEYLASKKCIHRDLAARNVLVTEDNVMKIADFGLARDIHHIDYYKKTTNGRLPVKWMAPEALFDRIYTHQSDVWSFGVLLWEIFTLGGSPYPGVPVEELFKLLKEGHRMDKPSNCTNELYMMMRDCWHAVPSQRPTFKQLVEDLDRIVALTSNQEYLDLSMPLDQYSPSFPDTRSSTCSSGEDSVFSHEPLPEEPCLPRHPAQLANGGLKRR
UniProt P21802, whole entry, looked up: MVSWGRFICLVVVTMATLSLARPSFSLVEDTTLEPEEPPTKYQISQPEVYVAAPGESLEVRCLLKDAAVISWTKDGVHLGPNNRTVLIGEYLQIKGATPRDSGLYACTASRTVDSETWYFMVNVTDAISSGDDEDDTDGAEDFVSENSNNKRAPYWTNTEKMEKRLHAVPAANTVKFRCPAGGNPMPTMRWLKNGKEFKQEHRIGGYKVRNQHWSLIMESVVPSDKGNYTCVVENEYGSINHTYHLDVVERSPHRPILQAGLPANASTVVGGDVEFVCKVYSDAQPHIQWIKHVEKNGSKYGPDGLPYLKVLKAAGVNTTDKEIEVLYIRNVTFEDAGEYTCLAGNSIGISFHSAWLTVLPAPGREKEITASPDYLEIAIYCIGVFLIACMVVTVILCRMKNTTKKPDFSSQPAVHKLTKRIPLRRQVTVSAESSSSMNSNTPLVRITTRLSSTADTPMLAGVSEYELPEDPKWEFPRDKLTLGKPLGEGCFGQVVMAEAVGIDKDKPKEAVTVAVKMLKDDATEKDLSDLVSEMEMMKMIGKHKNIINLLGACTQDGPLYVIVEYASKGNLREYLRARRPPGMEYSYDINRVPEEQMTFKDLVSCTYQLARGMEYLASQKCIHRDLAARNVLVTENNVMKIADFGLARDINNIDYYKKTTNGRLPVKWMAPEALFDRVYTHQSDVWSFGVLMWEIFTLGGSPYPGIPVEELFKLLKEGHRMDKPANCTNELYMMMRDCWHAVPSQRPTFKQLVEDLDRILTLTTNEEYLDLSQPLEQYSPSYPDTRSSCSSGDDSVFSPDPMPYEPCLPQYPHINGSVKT

The molecules below were run against FGFR1 (UniProt P11362) (assay: kinase-Nluc reporter destabilization hit call (1 = scored as downregulated) (binary); higher = compound decreases kinase abundance). Settings: K562; 2-18 h.

kinase-Nluc reporter destabilization hit call, inactive:
Cn1c(N2CCO[C@@H](c3ccc(F)cc3)C2)nc(-c2ccncn2)cc1=O (10 µM) 0
COc1ccc(CN2CCC(c3ccc4nc(C(=O)N5CCN(Cc6ccc(C(F)(F)F)cc6)CC5)[nH]c4c3)CC2)cn1 (2.5 µM) 0
O=C(O)c1c[nH]c2cc(Cl)c(-c3ccc(C4(O)CCC4)cc3)cc12 (10 µM) 0
CC(C)(Oc1ccc(Cl)cc1)C(=O)Nc1ccc(OCc2ccc(C#N)cc2)cc1 [AMPK activator 4] (10 µM) 0
O=C(NCc1ccn[nH]1)c1cc([C@@H]2CCNC[C@H]2COc2ccc3c(c2)OCO3)ccc1F [GRK2-IN-1 (hydrochloride)] (10 µM) 0
Cc1cnc(Cl)nc1-c1ccc(N(Cc2ccc(CNC(=O)C(F)F)cc2)C(=O)c2ccc(O)cc2O)cc1 (10 µM) 0
CC1=C(C#N)C(c2ccc3[nH]nc(C)c3c2)C(C#N)=C(C)N1 (10 µM) 0
CN(C[C@@H]1COCCO1)S(=O)(=O)Nc1ccc2ccc3ncc(-c4cnn(C)c4)cc3c(=O)c2c1 (2.5 µM) 0
CC(=O)Nc1nc(C)c(-c2cc(C)c3c(c2)CN([C@@H](C)C2CC2)C3=O)s1 (10 µM) 0
O=C(Nc1ccccc1C(=O)NC1CCCCNC1=O)c1cc2ccccc2s1 (configuration not stated) (10 µM) 0
CO[C@]1(C(=O)N[C@@H](C)c2ccc(-n3cc(F)cn3)nc2)CC[C@H](c2nc(C)cc(Nc3cc(C)[nH]n3)n2)CC1 [Pralsetinib] (10 µM) 0
O=[N+]([O-])c1ccc(-c2nc(-c3ccc(F)cc3)c(-c3ccncc3)[nH]2)cc1 (10 µM) 0
CC(ONC(=O)c1cc(C(F)(F)F)cc(C(F)(F)F)c1)C(=O)Nc1ccc(Cl)cc1 (configuration not stated) (2.5 µM) 0
Cc1cncc2cccc(S(=O)(=O)N3CCCNC[C@@H]3C)c12 [H-1152 (dihydrochloride)] (10 µM) 0
Cc1nc(NC(=O)N2CCC[C@H]2C(N)=O)sc1-c1ccnc(C(C)(C)C(F)(F)F)c1 [Alpelisib] (2.5 µM) 0
CCCCNc1ncc2c(-c3ccc(F)cc3)nn(CC3CCC(N)CC3)c2n1 (configuration not stated) (2.5 µM) 0
CS(=O)(=O)c1ccc([C@@H](CC2CCCC2)C(=O)Nc2nccs2)cc1 (10 µM) 0
CO/N=C1/C(c2c(O)[nH]c3cc(Cl)c(Cl)cc23)=Nc2ccccc21 (10 µM) 0
CNCc1ccccc1Sc1cccc2ccccc12 [IFN alpha-IFNAR-IN-1 (hydrochloride)] (10 µM) 0
C=CC(=O)N1CCC(c2ccc(C(N)=O)c(-c3ccc(Oc4ccccc4)cc3)n2)CC1 [Orelabrutinib] (2.5 µM) 0
Cc1cc2c(F)c(Oc3ncnn4cc(OC[C@@H](C)OC(=O)[C@H](C)N)c(C)c34)ccc2[nH]1 [Brivanib (alaninate)] (10 µM) 0
CCC(F)(F)c1cc(N2CCC(S(C)(=O)=O)CC2)nc2sc(C(N)=O)c(N)c12 (10 µM) 0
NC(=O)c1c(NC(=O)C2CC2)sc2c1CCCC2 (10 µM) 0
CC(C)=CCC[C@](C)(O[C@@H]1O[C@H](CO[C@@H]2O[C@H](CO)[C@@H](O)[C@H](O)[C@H]2O)[C@@H](O)[C@H](O)[C@H]1O)[C@H]1CC[C@]2(C)[C@@H]1[C@H](O)C[C@@H]1[C@@]3(C)CC[C@H](O[C@@H]4O[C@H](CO)[C@@H](O)[C@H](O)[C@H]4O[C@@H]4O[C@H](CO)[C@@H](O)[C@H](O)[C@H]4O)C(C)(C)[C@@H]3CC[C@]12C [Ginsenoside Rb1] (10 µM) 0
COc1cccc(-c2cc(=O)c3ccccc3o2)c1N (10 µM) 0
C[C@@H]1COC(Nc2ccc3ncnc(Nc4ccc(OCc5nccs5)c(Cl)c4)c3c2)=N1 [Varlitinib] (10 µM) 0
Cc1nc(Nc2cnn(C3CCNCC3)c2)nc2c1N(C)C(=O)c1cc3ccccc3cc1N2C (2.5 µM) 0

What follows are molecules tested against FGFR2 (UniProt P21802) in the same assay as above. Settings: K562; 2-18 h.

kinase-Nluc reporter destabilization hit call, inactive:
O=c1cc(-c2ccc(O[C@@H]3O[C@H](CO)[C@@H](O)[C@H](O)[C@H]3O)cc2)oc2cc(O)c([C@@H]3O[C@H](CO)[C@@H](O)[C@H](O)[C@H]3O[C@@H]3OC[C@H](O)[C@H](O)[C@H]3O)c(O)c12 [Vaccarin] (10 µM) 0
O=CN1CCN(c2ccc(C=C3C(=O)Nc4ccccc43)cc2)CC1 (10 µM) 0
COc1ccc(Cl)cc1N(CC(=O)Nc1ccc2c(c1)OCO2)S(=O)(=O)c1ccccc1 (2.5 µM) 0
CCc1c(C(=O)NNC(=O)[C@H](O)c2cc(F)cc(F)c2)ccc(O)c1C (10 µM) 0
CN(C)CCn1cc2cc(NC(=O)c3cccc(C(F)(F)F)n3)c(C(C)(C)O)cc2n1 (10 µM) 0
CCC[C@H](C)Oc1nc(N)c2[nH]c(=O)n(CCCCCN3CCCCC3)c2n1 (10 µM) 0
CCOC(=O)c1c(C)[nH]c(C=C2C(=O)Nc3ccccc32)c1C (10 µM) 0
Cc1ccc(NC(=O)N2CCN(c3nc(N)nc4sc(-c5cccnc5)nc34)CC2)cc1 [PI4KIII beta inhibitor 3] (10 µM) 0
CS[C@@]1(C(=O)Nc2ccc3[nH]nc(-c4ccc(OC(C)C)nc4)c3c2)CCN(CC(=O)N2CC=C(c3ccc(-c4ncn(C)n4)cc3)CC2)C1 (2.5 µM) 0
O=C(Nc1ccc(Cl)cc1)C1CN(C(=O)c2cccc(-c3ccco3)c2)CC(F)(F)C1 (configuration not stated) (2.5 µM) 0
Nc1ccc(Sc2nc3ccccc3s2)c(Cl)c1 [KRAS inhibitor-9] (10 µM) 0
Cn1c(N2CCO[C@@H](c3ccc(F)cc3)C2)nc(-c2ccncn2)cc1=O (10 µM) 0
COc1ccc(CN2CCC(c3ccc4nc(C(=O)N5CCN(Cc6ccc(C(F)(F)F)cc6)CC5)[nH]c4c3)CC2)cn1 (2.5 µM) 0
O=C(O)c1c[nH]c2cc(Cl)c(-c3ccc(C4(O)CCC4)cc3)cc12 (10 µM) 0
CC(C)(Oc1ccc(Cl)cc1)C(=O)Nc1ccc(OCc2ccc(C#N)cc2)cc1 [AMPK activator 4] (10 µM) 0
O=C(NCc1ccn[nH]1)c1cc([C@@H]2CCNC[C@H]2COc2ccc3c(c2)OCO3)ccc1F [GRK2-IN-1 (hydrochloride)] (10 µM) 0
Cc1cnc(Cl)nc1-c1ccc(N(Cc2ccc(CNC(=O)C(F)F)cc2)C(=O)c2ccc(O)cc2O)cc1 (10 µM) 0
CC1=C(C#N)C(c2ccc3[nH]nc(C)c3c2)C(C#N)=C(C)N1 (10 µM) 0
CN(C[C@@H]1COCCO1)S(=O)(=O)Nc1ccc2ccc3ncc(-c4cnn(C)c4)cc3c(=O)c2c1 (2.5 µM) 0
CC(=O)Nc1nc(C)c(-c2cc(C)c3c(c2)CN([C@@H](C)C2CC2)C3=O)s1 (10 µM) 0
O=C(Nc1ccccc1C(=O)NC1CCCCNC1=O)c1cc2ccccc2s1 (configuration not stated) (10 µM) 0
CO[C@]1(C(=O)N[C@@H](C)c2ccc(-n3cc(F)cn3)nc2)CC[C@H](c2nc(C)cc(Nc3cc(C)[nH]n3)n2)CC1 [Pralsetinib] (10 µM) 0
O=[N+]([O-])c1ccc(-c2nc(-c3ccc(F)cc3)c(-c3ccncc3)[nH]2)cc1 (10 µM) 0
CC(ONC(=O)c1cc(C(F)(F)F)cc(C(F)(F)F)c1)C(=O)Nc1ccc(Cl)cc1 (configuration not stated) (2.5 µM) 0
Cc1cncc2cccc(S(=O)(=O)N3CCCNC[C@@H]3C)c12 [H-1152 (dihydrochloride)] (10 µM) 0
Cc1nc(NC(=O)N2CCC[C@H]2C(N)=O)sc1-c1ccnc(C(C)(C)C(F)(F)F)c1 [Alpelisib] (2.5 µM) 0
CCCCNc1ncc2c(-c3ccc(F)cc3)nn(CC3CCC(N)CC3)c2n1 (configuration not stated) (2.5 µM) 0
CS(=O)(=O)c1ccc([C@@H](CC2CCCC2)C(=O)Nc2nccs2)cc1 (10 µM) 0
CO/N=C1/C(c2c(O)[nH]c3cc(Cl)c(Cl)cc23)=Nc2ccccc21 (10 µM) 0
CNCc1ccccc1Sc1cccc2ccccc12 [IFN alpha-IFNAR-IN-1 (hydrochloride)] (10 µM) 0
C=CC(=O)N1CCC(c2ccc(C(N)=O)c(-c3ccc(Oc4ccccc4)cc3)n2)CC1 [Orelabrutinib] (2.5 µM) 0
Cc1cc2c(F)c(Oc3ncnn4cc(OC[C@@H](C)OC(=O)[C@H](C)N)c(C)c34)ccc2[nH]1 [Brivanib (alaninate)] (10 µM) 0
CCC(F)(F)c1cc(N2CCC(S(C)(=O)=O)CC2)nc2sc(C(N)=O)c(N)c12 (10 µM) 0
NC(=O)c1c(NC(=O)C2CC2)sc2c1CCCC2 (10 µM) 0
CC(C)=CCC[C@](C)(O[C@@H]1O[C@H](CO[C@@H]2O[C@H](CO)[C@@H](O)[C@H](O)[C@H]2O)[C@@H](O)[C@H](O)[C@H]1O)[C@H]1CC[C@]2(C)[C@@H]1[C@H](O)C[C@@H]1[C@@]3(C)CC[C@H](O[C@@H]4O[C@H](CO)[C@@H](O)[C@H](O)[C@H]4O[C@@H]4O[C@H](CO)[C@@H](O)[C@H](O)[C@H]4O)C(C)(C)[C@@H]3CC[C@]12C [Ginsenoside Rb1] (10 µM) 0
